# PubChem BioAssay AID504808 | Drosophila RNAi Screening Center | 2011
# Aim: 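Fly genes required to hold E2F transcription in check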 (primary screen)
# System: Drosophila S2 cells
# Reagent: long dsRNA against Drosophila genes
# Measurement: 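Dual luciferase plate measurements; E2F-specific signal taken as firefly over Renilla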
# Scale: E2F firefly: higher = more E2F reporter activity; Renilla normaliser: higher = more normaliser reporter signal
# Call rule: 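Called active if the normalised E2F reporter went up by over 50%; the cutoff is arbitrary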
# In all, the deposit lists about 21,000 reagents; this is a random part of those that have a named target and a result. Of all reagents, 18 (0.084%) were called active. 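Raw counts without plate normalisation, one of two replicates; the ratio scores behind the calls were not deposited.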 The numbers tell different reagents against one gene apart. No sequences are given here. Not stated in the record: the amount of reagent, the time to read-out.
predicted target,reagent no.,"E2F firefly, rep 1","Renilla normaliser, rep 1",outcome
CG34434 (GeneID 31472),1,1.63e5,6602,inactive
zpg (GeneID 251414),1,1.00e5,3888,inactive
CG12290 (GeneID 43182),1,1764,968,inactive
CG6951 (GeneID 40222),1,1.40e5,6822,inactive
slpr (GeneID 44111),1,8407,716,inactive
COX7AL2 (GeneID 5740746),1,1.30e5,5064,inactive
ninaD (GeneID 326160),1,95019,4342,inactive
DCP1 (GeneID 37790),1,83400,3614,inactive
CG3556 (GeneID 31380),1,1833,808,inactive
CG3515 (GeneID 33437),1,1.56e5,5432,inactive
alpha-Spec (GeneID 38231),1,70463,3290,inactive
Swip-1 (GeneID 35158),1,90549,3778,inactive
Swip-1 (GeneID 35158),2,97352,4188,inactive
Kah (GeneID 38072),1,1.49e5,4573,inactive
Kah (GeneID 38072),2,86142,4155,inactive
Nadk2 (GeneID 35918),1,3101,202,inactive
CG13693 (GeneID 33187),1,1.57e5,5750,inactive
CG17191 (GeneID 43249),1,1.20e5,4635,inactive
Lamp1 (GeneID 35411),1,97159,3830,inactive
CG15824 (GeneID 33272),1,1.76e5,5758,inactive
trbl (GeneID 43999),1,1.42e5,5909,inactive
net (GeneID 45339),1,1.44e5,4864,inactive
CG14478 (GeneID 36964),1,1.28e5,4927,inactive
CG33235 (GeneID 2768871),1,1.39e5,5911,inactive
CG13069 (GeneID 50271),1,1.55e5,8215,inactive
CG14306 (retired record) (GeneID 42231),1,1.31e5,6347,inactive
CG32373 (GeneID 318000),1,1.37e5,4467,inactive
CR31824 (GeneID 10178848),1,1.23e5,6778,inactive
CG11550 (GeneID 43731),1,1.09e5,5291,inactive
Kap-alpha3 (GeneID 41158),1,1.27e5,6122,inactive
CG3860 (GeneID 37825),1,93933,3403,inactive
Snmp2 (GeneID 38868),1,97963,3549,inactive
Snmp2 (GeneID 38868),2,93279,3949,inactive
CG34008 (GeneID 3885577),1,89497,2853,inactive
Cyp313a1 (GeneID 41759),1,1.19e5,6328,inactive
Mapmodulin (GeneID 37043),1,71149,3498,inactive
Tsp42El (GeneID 35622),1,92131,3368,inactive
CG15594 (GeneID 40768),1,1.40e5,6303,inactive
CG5004 (GeneID 32698),1,1.51e5,6161,inactive
CG5004 (GeneID 32698),2,2.29e5,7531,inactive
CG5004 (GeneID 32698),3,91115,6258,inactive
ENGase (GeneID 32726),1,46697,3054,inactive
ENGase (GeneID 32726),2,1.97e5,8386,inactive
CG12911 (GeneID 36081),1,1.46e5,5838,inactive
Arfip (GeneID 41353),1,74447,3457,inactive
CG17350 (GeneID 35210),1,97863,3967,inactive
Klc (GeneID 39445),1,74905,3417,inactive
CG32625 (GeneID 318128),1,92958,2751,inactive
stc (GeneID 34888),1,75631,3002,inactive
l(1)G0020 (GeneID 31811),1,1.44e5,6903,inactive
CG9853 (GeneID 40557),1,73410,3603,inactive
ND-MLRQ (GeneID 317928),1,95309,3792,inactive
PGRP-SC2 (GeneID 35862),1,1.44e5,4614,inactive
CG32391 (GeneID 318007),1,1.27e5,4706,inactive
CG12880 (GeneID 43328),1,1734,840,inactive
Trm7-32 (GeneID 42056),1,73700,3537,inactive
CG34283 (GeneID 5740817),1,44404,3007,inactive
Ets98B (GeneID 43334),1,1.10e5,5669,inactive
icln (GeneID 36997),1,1.44e5,5021,inactive
Wdr24 (GeneID 43505),1,1648,952,inactive
Tsf1 (GeneID 32821),1,2.42e5,7310,inactive
AANATL6 (GeneID 37212),1,1.45e5,5074,inactive
CG17002 (GeneID 35610),1,85674,3688,inactive
Spag1 (GeneID 43239),1,1.22e5,6770,inactive
brv1 (GeneID 40116),1,1.46e5,6404,inactive
Or1a (GeneID 30978),1,1.20e5,5296,inactive
Epac (GeneID 35588),1,49888,3409,inactive
Epac (GeneID 35588),2,70389,3397,inactive
Epac (GeneID 35588),3,1.07e5,4219,inactive
CG3511 (GeneID 37926),1,81398,3462,inactive
CG34273 (GeneID 5740836),1,75683,2772,inactive
CG9263 (GeneID 34770),1,1.07e5,4404,inactive
Oatp58Dc (GeneID 37545),1,94066,3624,inactive
CG13039 (GeneID 39805),1,1.51e5,6741,inactive
CG6324 (GeneID 32481),1,1.57e5,5887,inactive
Rab10 (GeneID 33025),1,1.37e5,6312,inactive
ATbp (GeneID 5740592),1,1.41e5,5997,inactive
CG17267 (GeneID 42454),1,1.40e5,7206,inactive
CG33914 (GeneID 3772464),1,1.36e5,6165,inactive
COX4L (GeneID 35491),1,1.10e5,4418,inactive
CG2182 (GeneID 40697),1,62111,3495,inactive
CG6927 (GeneID 31419),1,7835,808,inactive
CG13008 (GeneID 32654),1,2.55e5,7038,inactive
CG13008 (GeneID 32654),2,2.59e5,7535,inactive

Entries above whose gene name starts with T or t (4):
predicted target,reagent no.,"E2F firefly, rep 1","Renilla normaliser, rep 1",outcome
trbl (GeneID 43999),1,1.42e5,5909,inactive
Tsp42El (GeneID 35622),1,92131,3368,inactive
Trm7-32 (GeneID 42056),1,73700,3537,inactive
Tsf1 (GeneID 32821),1,2.42e5,7310,inactive
